# Results reported in the odorant receptor screen of Mainland et al. (2015).
# Several values for one entry are separate records, joined by “and”; a condition that tells them apart may be missing. Identical values can stand only once. The list shows a part of the results. Single wells; the ratio to wells without odorant was worked out here, and repeats agree poorly.
# Legend:
# Assay in all cases: odorant receptor activation (CRE luciferase / Renilla) (fold of no-odor wells); higher = more activation
# Conditions in all cases: 100 µM
# [1] = test system: OR2T10 clone 1047
# [2] = test system: OR2T11 C119R/Q309R clone 1050
# [3] = test system: OR2T11 C119R/Q309R clone 1051
# [4] = test system: OR2T2 clone 1561
# [5] = test system: OR2T29 clone 1545
# [6] = test system: OR2T3 clone 1397
# [7] = test system: OR2T34 clone 1049
# [8] = test system: OR2T35 V31I clone 1562
# [9] = test system: OR2T4 clone 1347
# [10] = test system: OR2T5 clone 1033
# [11] = test system: OR2T5 clone 1495
# [12] = test system: OR2T5 clone 1496
# [13] = test system: OR2T6 N21D/C23G/S243A clone 1432
# [14] = test system: OR2T8 clone 1576
# [15] = test system: OR2V1 clone 1718
# [16] = test system: OR2W1 D296N clone 1536
# [17] = test system: OR2W1 clone 1067
# [18] = test system: OR2W3 Indel clone 1491
# [19] = test system: OR2W5 clone 1506
# [20] = test system: OR2Y1 V200L clone 1069
SMILES,odorant receptor activation [1],odorant receptor activation [2],odorant receptor activation [3],odorant receptor activation [4],odorant receptor activation [5],odorant receptor activation [6],odorant receptor activation [7],odorant receptor activation [8],odorant receptor activation [9],odorant receptor activation [10],odorant receptor activation [11],odorant receptor activation [12],odorant receptor activation [13],odorant receptor activation [14],odorant receptor activation [15],odorant receptor activation [16],odorant receptor activation [17],odorant receptor activation [18],odorant receptor activation [19],odorant receptor activation [20]
CCC(C)=O [2-butanone],3.25,2.63,2.43,0.789,1.31,0.974,2.69,0.589,1.32,1.75,1.06,0.991,1.11,0.676,1.05,0.977,2.36 and 1.93,0.817,1.36,2.68
CCOc1cc(C=O)ccc1O [ethyl vanillin],1.15 and 1.11,0.899 and 1.11,1.2 and 1.11,0.949,1.24,1.21 and 1.04,1.81 and 0.937,0.871,1.25 and 1.08,1.36 and 1.07,1.01 and 1.94 and 1.08,0.93 and 1.57 and 1.32,1.34 and 1.2,0.844,0.814,1.29 and 2.42 and 1.02,–,1.04 and 1.79 and 1.11,1.16 and 1.77 and 1.29,1.27 and 0.968
CS [methanethiol],0.983,1.02,1.12,1.6,0.818,0.846,0.864,0.562,0.721,1.06,1.05,0.995,0.992,0.77,0.881,1.01,0.999 and 1.2,0.815,0.776,1.29
CCCCOC(C)=O [butyl acetate],1.11,1.11,1.28,0.691,0.795,0.256,0.824,1.06,0.843,1.15,1.08,1,0.153,0.777,0.931,1.53,0.911 and 1.75,1.12,0.913,1.38
